PubChem BioAssay AID1224828, NIAID – 2016
Shown is one part, drawn at random, of about 17,000 deposited reagents. 762 of all reagents (4.5%) count as active. 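Active calls include both raised and lowered p65 entry, mostly lowered; wells with fewer than 50 cells lack a z-score.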 The raw values are shown without normalisation. Entries without a mark were called inactive.

- Test: 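Regulators linking TLR4 signalling to p65 nuclear translocation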 (primary screen)
- Cells: mouse RAW264.7 G9 macrophage reporter cells (GFP-p65, Tnf promoter-mCherry)
- Reagent: siRNA pool against mouse genes, 100 nM
- Duration: 2 days siRNA transfection, then 40 min LPS before fixation
- Treatment: LPS (Salmonella minnesota R595) at 10 ng/ml
- Read-out: 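Microscopy ratio of nuclear to perinuclear-ring GFP-p65 signal, scaled to the plate median; gene score is the average of two replicate robust z-scores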
- Direction: p65 translocation robust z-score: higher = more nuclear NF-kappaB p65 after LPS than the plate median; nuclear/cytoplasmic p65 ratio: higher = more nuclear NF-kappaB p65
- Hit rule: 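Active if robust z is above 3.3 (negative regulators) or below -1.56, the Tlr4 control median (positive regulators); activity score 50 or more; control wells not called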
- Meaning of the calls: active = hit (p65 shift raised or lowered); inactive = no clear change

no.	Gene	p65 translocation robust z-score	nuclear/cytoplasmic p65 ratio, rep 1	nuclear/cytoplasmic p65 ratio, rep 2	low cell count flag
1	Ate1	-0.18	1.58	1.49	enough cells to score
2	Sgcz		1.28	1.07	fewer than 50 cells per well; well left out of scoring
3	Il15ra	0.37	1.42	1.48	enough cells to score
4	Ifrd2		1.17	1.1	fewer than 50 cells per well; well left out of scoring
5	Dnah11		1.46	1.25	fewer than 50 cells per well; well left out of scoring
6	Tiaf2	-0.54	1.25	1.17	enough cells to score
7	Lims2	1.29	1.94	1.72	enough cells to score
8	Zfp595	-0.71	1.32	1.4	enough cells to score
9	Cela3b	-0.41	1.27	1.32	enough cells to score
10	Nat2	-0.77	1.35	1.24	enough cells to score
11	Top2b	0.5	1.57	1.61	enough cells to score
12	Celf5		1.49	1.71	fewer than 50 cells per well; well left out of scoring
13	Lman2	-0.17	1.64	1.56	enough cells to score
14	Npffr1	0.3	1.51	1.66	enough cells to score
15	4930590J08Rik		1.45	1.34	fewer than 50 cells per well; well left out of scoring
16	Syt11	-0.16	1.35	1.16	enough cells to score

Next part, starting with the last 4 of the part before.
no.	Gene	p65 translocation robust z-score	nuclear/cytoplasmic p65 ratio, rep 1	nuclear/cytoplasmic p65 ratio, rep 2	low cell count flag
13	Lman2	-0.17	1.64	1.56	enough cells to score
14	Npffr1	0.3	1.51	1.66	enough cells to score
15	4930590J08Rik		1.45	1.34	fewer than 50 cells per well; well left out of scoring
16	Syt11	-0.16	1.35	1.16	enough cells to score
17	Ptpn6	-1.14	1.36	1.4	enough cells to score
18	Akap10	-0.32	1.62	1.52	enough cells to score
19	Hyal3	-1.83 (active)	1.28	1.19	enough cells to score
20	Nrip1	-1.47	1.23	1.21	enough cells to score
21	Rab2a	0.89	1.62	1.66	enough cells to score
22	Foxl1	0.23	1.47	1.39	enough cells to score
23	Ap1ar	-0.43	1.48	1.81	enough cells to score
24	Cst8	-0.18	1.48	1.83	enough cells to score
25	Tyw3	1.21	1.52	1.37	enough cells to score
26	Armc2		1.19	1.46	fewer than 50 cells per well; well left out of scoring
27	Hltf	1.19	1.7	1.75	enough cells to score
28	Ikzf5	0.5	1.55	1.25	enough cells to score
29	Npr3	0.62	1.6	1.68	enough cells to score
30	Ddx52	-1.56	1.31	1.36	enough cells to score
31	Akr1b10	0.98	1.54	1.38	enough cells to score
32	Emilin1	-0.05	1.33	1.36	enough cells to score
33	Rhbg		1.21	1.21	fewer than 50 cells per well; well left out of scoring
34	Nme4	0.1	1.52	1.39	enough cells to score
35	Ppp1r21	0.26	1.54	1.52	enough cells to score
36	4921524J17Rik		1.52	1.78	fewer than 50 cells per well; well left out of scoring
37	Foxj1	-0.95	1.33	1.23	enough cells to score
38	Casr	0.21	1.51	1.64	enough cells to score
39	Krtap4-2	-0.05	1.49	1.62	enough cells to score
40	Adam5	-0.05	1.53	1.74	enough cells to score
